Drawing on article PMC5996148, this text covers binding signal for 1 sequence.

Test in all cases: protein microarray (ProtoArray v5.0), streptavidin-Alexa Fluor 647
Settings in all cases: 3'-biotin; 20 mM Tris (pH 7.5), 5 mM MgCl2, 100 mM KCl, 0.1% Tween-20, A/T-rich and random oligonucleotide blockers; temperature not stated; high values mean tight binding

Assay [1] has as its system LOC199800 (human).
Assay [2] has as its system LOC201725 (human).
Assay [3] concerns LOC202459 (human).
Assay [4] concerns LOC220906 (human).
In assay [5] the test system is LOC253012 (human).
The subject of assay [6] is LOC284134 (human).
The test system of assay [7] is LOC284422 (human).
The subject of assay [8] is LOC285141 (human).
For assay [9], the system named is LOC285401 (human).
Assay [10] concerns LOC285577 (human).

Some of the results follow.

Take “GGGAGGCTGAGGCAGG [G4-1 biotinylated (PQS2)]”: the binding signal in [1] was -0.313 z-score; in assay [2] it was -0.356 z-score; in assay [3], -0.343 z-score; in assay [4] it was -0.236 z-score; in [5], -0.304 z-score; in assay [6] it was -0.33 z-score. The binding signal in assay [7] is -0.316 z-score; in assay [8] it was -0.337 z-score; in assay [9], -0.276 z-score; in assay [10] it was -0.326 z-score.
